The other results are listed elsewhere or left out.
Legend:
Experiment in all cases: glycan array binding signal (z-score within array); higher = stronger binding
Details in all cases: glycan notation: IUPAC condensed, linker removed
[1] = biological target: GlcNAc(b1-2)Gal(b1-3)GalNAc
Procedure, shortened: (§1)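 Glycan array binding is given as a within-array Z-score, which can be read as non-binding when negative. The arrays, 3228 of them, came from the Consortium for Functional Glycomics database and were retained only where the protein sequence was available. Z-scores were averaged across arrays of the same protein sequence at different concentrations or buffers and across linkers.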

[2] = biological target: GlcNAc(b1-2)Man(a1-3)[GlcNAc(b1-2)Man(a1-6)]Man(b1-4)GlcNAc(b1-4)GlcNAc
Procedure, shortened: as §1

[3] = biological target: GlcNAc(b1-2)Man(a1-3)[GlcNAc(b1-2)Man(a1-6)]Man(b1-4)GlcNAc(b1-4)[Fuc(a1-6)]GlcNAc
Procedure, shortened: as §1

[4] = biological target: GlcNAc(b1-2)Man(a1-3)[GlcNAc(b1-4)][GlcNAc(b1-2)Man(a1-6)]Man(b1-4)GlcNAc(b1-4)GlcNAc
Procedure, shortened: as §1

[5] = biological target: GlcNAc(b1-2)Man(a1-3)[GlcNAc(b1-4)][GlcNAc(b1-2)Man(a1-6)]Man(b1-4)GlcNAc(b1-4)[Fuc(a1-6)]GlcNAc
Procedure, shortened: as §1

[6] = biological target: GlcNAc(b1-2)[GlcNAc(b1-4)]Man(a1-3)[GlcNAc(b1-2)Man(a1-6)]Man(b1-4)GlcNAc(b1-4)GlcNAc
Procedure, shortened: as §1

[7] = biological target: GlcNAc(b1-2)[GlcNAc(b1-4)]Man(a1-3)[GlcNAc(b1-4)][GlcNAc(b1-2)Man(a1-6)]Man(b1-4)GlcNAc(b1-4)GlcNAc
Procedure, shortened: as §1

[8] = biological target: GlcNAc(b1-2)[GlcNAc(b1-4)]Man(a1-3)[GlcNAc(b1-4)][GlcNAc(b1-2)[GlcNAc(b1-6)]Man(a1-6)]Man(b1-4)GlcNAc(b1-4)GlcNAc
Procedure, shortened: as §1

[9] = biological target: GlcNAc(b1-2)[GlcNAc(b1-4)]Man(a1-3)[GlcNAc(b1-4)][GlcNAc(b1-2)[GlcNAc(b1-6)]Man(a1-6)]Man(b1-4)GlcNAc(b1-4)[Fuc(a1-6)]GlcNAc
Procedure, shortened: as §1

[10] = biological target: GlcNAc(b1-2)[GlcNAc(b1-6)]Man(a1-6)[GlcNAc(b1-2)Man(a1-3)]Man(b1-4)GlcNAc(b1-4)GlcNAc
Procedure, shortened: as §1

[11] = biological target: GlcNAc(b1-2)[GlcNAc(b1-6)]Man(a1-6)[GlcNAc(b1-2)Man(a1-3)]Man(b1-4)GlcNAc(b1-4)[Fuc(a1-6)]GlcNAc
Procedure, shortened: as §1

[12] = biological target: GlcNAc(b1-2)[GlcNAc(b1-6)]Man(a1-6)[GlcNAc(b1-4)][GlcNAc(b1-2)Man(a1-3)]Man(b1-4)GlcNAc(b1-4)GlcNAc
Procedure, shortened: as §1

GlcNAc(b1-3)Fuc = biological target: GlcNAc(b1-3)Fuc
Procedure, shortened: as §1

GlcNAc(b1-3)Gal = biological target: GlcNAc(b1-3)Gal
Procedure, shortened: as §1

[13] = biological target: GlcNAc(b1-3)Gal(b1-3)GalNAc
Procedure, shortened: as §1

GlcNAc(b1-3)Gal(b1-4)Glc = biological target: GlcNAc(b1-3)Gal(b1-4)Glc
Procedure, shortened: as §1

[14] = biological target: GlcNAc(b1-3)Gal(b1-4)GlcNAc
Procedure, shortened: as §1

[15] = biological target: GlcNAc(b1-3)Gal(b1-4)GlcNAc(b1-2)Man(a1-3)[GlcNAc(b1-3)Gal(b1-4)GlcNAc(b1-2)Man(a1-6)]Man(b1-4)GlcNAc(b1-4)GlcNAc
Procedure, shortened: as §1

[16] = biological target: GlcNAc(b1-3)Gal(b1-4)GlcNAc(b1-2)Man(a1-3)[GlcNAc(b1-3)Gal(b1-4)GlcNAc(b1-2)Man(a1-6)]Man(b1-4)GlcNAc(b1-4)[Fuc(a1-6)]GlcNAc
Procedure, shortened: as §1

[17] = biological target: GlcNAc(b1-3)Gal(b1-4)GlcNAc(b1-2)[GlcNAc(b1-3)Gal(b1-4)GlcNAc(b1-6)]Man(a1-6)[GlcNAc(b1-3)Gal(b1-4)GlcNAc(b1-2)Man(a1-3)]Man(b1-4)GlcNAc(b1-4)GlcNAc
Procedure, shortened: as §1

[18] = biological target: GlcNAc(b1-3)Gal(b1-4)GlcNAc(b1-3)Gal(b1-4)GlcNAc
Procedure, shortened: as §1

[19] = biological target: GlcNAc(b1-3)Gal(b1-4)GlcNAc(b1-3)Gal(b1-4)GlcNAc(b1-2)Man(a1-3)[GlcNAc(b1-3)Gal(b1-4)GlcNAc(b1-3)Gal(b1-4)GlcNAc(b1-2)Man(a1-6)]Man(b1-4)GlcNAc(b1-4)GlcNAc
Procedure, shortened: as §1

B1: CM2 (Cordyceps militaris) (protein)
chain: MEIAEQNVGKSCAIVNLIPPKEGSNIWTAKQVTIARNLPPNRGTGRHQIDWSFGPVKVTGYVDTTNWEIGVTVSIMGIDLGTVYGNLRDGVVLNVDLFLAKGQVRFYLKNGNEVWVHLSVEIRFDGKFEGDYKIITV
glycan array binding signal (z-score) [1]: -1.47
glycan array binding signal (z-score) [2]: 0.185
glycan array binding signal (z-score) [3]: -0.909
glycan array binding signal (z-score) [4]: -0.048
glycan array binding signal (z-score) [5]: 0.634
glycan array binding signal (z-score) [6]: 1.47
glycan array binding signal (z-score) [7]: 0.795
glycan array binding signal (z-score) [8]: -1.09
glycan array binding signal (z-score) [9]: -0.129
glycan array binding signal (z-score) [10]: -0.182
glycan array binding signal (z-score) [11]: -0.033
glycan array binding signal (z-score) [12]: -1.38
glycan array binding signal (z-score) (GlcNAc(b1-3)Fuc): 1.55
glycan array binding signal (z-score) (GlcNAc(b1-3)Gal): -1.29
glycan array binding signal (z-score) [13]: 0.202
glycan array binding signal (z-score) (GlcNAc(b1-3)Gal(b1-4)Glc): 0.644
glycan array binding signal (z-score) [14]: 0.373
glycan array binding signal (z-score) [15]: 0.096
glycan array binding signal (z-score) [16]: 2.3
glycan array binding signal (z-score) [17]: -0.174
glycan array binding signal (z-score) [18]: -1.06
glycan array binding signal (z-score) [19]: 0.188

Source: the supplement of paper PMC8728848
